Reference: the supplement of paper PMC6078165
The reference is the same well before dosing, and untreated signal decays as well.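 Fibroblast labels name human fibroblasts: mostly primary ones from tissues such as uterus (C12385, HUF), lung (H6013), bone (Hs27A), adrenal (HADF) and skin (WS1), plus mammary HMF and breast cancer-associated Hs343T. The cancer cells are basal-like or mesenchymal-like triple-negative breast cancer lines. The paper calls a changed response a hit when it shifts by more than 3x the replicate standard deviation. The tissue of the other fibroblasts is not given here.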

System: MDAMB468
Test: relative JC-1 red fluorescence (viability) vs pre-drug, coculture with fibroblast (fraction); higher = more viable cancer cells
Protocol: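 JC-1 labelled TNBC cells cocultured 1:1 (1,500 cells each) with CellTrace Violet stained primary or stromal fibroblasts in 384-well plates in FluoroBrite medium, treated with one of 42 anticancer drugs at 0.1, 1, 10 or 100 uM. JC-1 red fluorescence (mitochondrial integrity in cancer cells only) was read by plate reader every 8 h for 72 h. Values are normalised to each well's pre-drug value. The stock of one drug was tenfold lower, so its dose labels may be too high.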

CO[C@@]12[C@H](COC(N)=O)C3=C(C(=O)C(C)=C(N)C3=O)N1C[C@@H]1N[C@@H]12 [Mitomycin C]
relative JC-1 red fluorescence
Details | 8 h | 16 h | 24 h | 32 h | 40 h | 48 h | 56 h | 64 h | 72 h
0.1 µM, coculture fibroblast: C12385 | 0.902 | 0.845 | 0.785 | 0.713 | 0.663 | 0.641 | 0.594 | 0.5538 | 0.528
0.1 µM, coculture fibroblast: H6013 | 0.888 | 0.831 | 0.7859 | 0.7716 | 0.72 | 0.704 | 0.656 | 0.627 | 0.579
0.1 µM, coculture fibroblast: H6019 | 0.839 | 0.778 | 0.729 | 0.655 | 0.589 | 0.5613 | 0.499 | 0.45385 | 0.4189
0.1 µM, coculture fibroblast: H6076 | 0.982 | 0.961 | 0.9229 | 0.924 | 0.845 | 0.845 | 0.8 | 0.779 | 0.823
0.1 µM, coculture fibroblast: H6231 | 0.834 | 0.863 | 0.91 | 0.8434 | 0.809 | 0.769 | 0.708 | 0.6632 | 0.6323
0.1 µM, coculture fibroblast: HADF | 0.88267 | 0.817 | 0.7346 | 0.719 | 0.659 | 0.634 | 0.594 | 0.572 | 0.5352
0.1 µM, coculture fibroblast: HCFa | 0.871 | 0.797 | 0.741 | 0.719 | 0.642 | 0.633 | 0.581 | 0.541 | 0.501
0.1 µM, coculture fibroblast: HCPF | 0.862 | 0.955 | 0.852 | 0.83 | 0.764 | 0.727 | 0.6638 | 0.645 | 0.615
0.1 µM, coculture fibroblast: HHSteC | 0.922 | 0.853 | 0.82 | 0.789 | 0.746 | 0.743 | 0.673 | 0.643 | 0.585
0.1 µM, coculture fibroblast: HMF | 0.8483 | 0.9333 | 0.848 | 0.82 | 0.752 | 0.726 | 0.677 | 0.656 | 0.631
0.1 µM, coculture fibroblast: HPFa | 0.923 | 0.895 | 0.83 | 0.774 | 0.736 | 0.733 | 0.66 | 0.63 | 0.555
0.1 µM, coculture fibroblast: HUF | 0.9001 | 0.807 | 0.75 | 0.688 | 0.63 | 0.602 | 0.558 | 0.534 | 0.5
0.1 µM, coculture fibroblast: Hs5 | 0.813 | 0.972 | 0.907 | 0.876 | 0.805 | 0.772 | 0.727 | 0.695 | 0.713
0.1 µM, coculture fibroblast: Hs27A | 0.86871 | 0.793 | 0.764 | 0.77 | 0.717 | 0.714 | 0.688 | 0.68 | 0.634
0.1 µM, coculture fibroblast: Hs343T | 0.896 | 0.976 | 0.904 | 0.878 | 0.796 | 0.776 | 0.707 | 0.68 | 0.651
0.1 µM, coculture fibroblast: WS1 | 0.8882 | 0.7914 | 0.736 | 0.671 | 0.618 | 0.588 | 0.553 | 0.516 | 0.491
1 µM, coculture fibroblast: C12385 | 0.872 | 0.7939 | 0.765 | 0.703 | 0.647 | 0.629 | 0.575 | 0.537 | 0.519
1 µM, coculture fibroblast: H6013 | 0.854 | 0.848 | 0.795 | 0.762 | 0.714 | 0.6934 | 0.642 | 0.612 | 0.537
1 µM, coculture fibroblast: H6019 | 0.83 | 0.799 | 0.746 | 0.673 | 0.598 | 0.565 | 0.494 | 0.439 | 0.407
1 µM, coculture fibroblast: H6076 | 0.903 | 0.894 | 0.832 | 0.81 | 0.731 | 0.695 | 0.644 | 0.606 | 0.615
1 µM, coculture fibroblast: H6231 | 0.865 | 0.865 | 0.82 | 0.821 | 0.745 | 0.719 | 0.652 | 0.622 | 0.61
1 µM, coculture fibroblast: HADF | 0.845 | 0.8413 | 0.778 | 0.7643 | 0.714 | 0.687 | 0.639 | 0.63 | 0.565
1 µM, coculture fibroblast: HCFa | 0.847 | 0.828 | 0.766 | 0.723 | 0.646 | 0.63 | 0.581 | 0.541 | 0.484
1 µM, coculture fibroblast: HCPF | 0.8183 | 0.895 | 0.805 | 0.785 | 0.713 | 0.677 | 0.61 | 0.587 | 0.5699
1 µM, coculture fibroblast: HHSteC | 0.8708 | 0.864 | 0.829 | 0.779 | 0.754 | 0.744 | 0.681 | 0.655 | 0.59
1 µM, coculture fibroblast: HMF | 0.819 | 0.919 | 0.847 | 0.806 | 0.724 | 0.695 | 0.633 | 0.599 | 0.557
1 µM, coculture fibroblast: HPFa | 0.951 | 0.8837 | 0.84 | 0.785 | 0.754 | 0.755 | 0.699 | 0.679 | 0.6
1 µM, coculture fibroblast: HUF | 0.9058 | 0.79 | 0.739 | 0.673 | 0.617 | 0.583 | 0.527 | 0.496 | 0.471
1 µM, coculture fibroblast: Hs5 | 0.971 | 0.893 | 0.852 | 0.828 | 0.753 | 0.722 | 0.682 | 0.652 | 0.6812
1 µM, coculture fibroblast: Hs27A | 0.838 | 0.833 | 0.75 | 0.731 | 0.675 | 0.664 | 0.63 | 0.609 | 0.549
1 µM, coculture fibroblast: Hs343T | 0.868 | 0.874 | 0.835 | 0.806 | 0.713 | 0.682 | 0.623 | 0.593 | 0.564
1 µM, coculture fibroblast: WS1 | 0.835 | 0.775 | 0.723 | 0.665 | 0.611 | 0.578 | 0.543 | 0.511 | 0.492
